# Laboratory results from paper doi:10.1101/2024.02.21.581502.
# T1: SlPsbS (tomato (Solanum lycopersicum)) (UniProt P54773)
# T1 sequence: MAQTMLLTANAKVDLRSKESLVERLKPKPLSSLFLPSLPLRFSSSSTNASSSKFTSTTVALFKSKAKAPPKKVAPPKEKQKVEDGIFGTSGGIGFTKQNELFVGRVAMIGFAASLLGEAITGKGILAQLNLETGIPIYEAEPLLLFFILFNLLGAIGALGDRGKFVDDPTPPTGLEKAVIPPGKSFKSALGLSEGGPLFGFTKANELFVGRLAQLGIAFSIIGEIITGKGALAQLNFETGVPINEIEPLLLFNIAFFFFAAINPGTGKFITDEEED
# T2: SlPsbS-3xFLAG (tomato (Solanum lycopersicum)) (UniProt P54773)
# T2 sequence: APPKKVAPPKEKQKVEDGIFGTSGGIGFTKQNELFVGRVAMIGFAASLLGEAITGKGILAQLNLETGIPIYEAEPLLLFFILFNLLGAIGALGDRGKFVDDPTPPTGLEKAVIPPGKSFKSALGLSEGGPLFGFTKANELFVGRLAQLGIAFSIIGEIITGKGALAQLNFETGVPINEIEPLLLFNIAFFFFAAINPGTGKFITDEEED
# How the values were obtained:
# [1] = molecular target: T1, SlPsbS (tomato (Solanum lycopersicum)); experiment: two-hybrid
# [2] = molecular target: T2, SlPsbS-3xFLAG (tomato (Solanum lycopersicum)); experiment: co-IP
# [3] = molecular target: SlCSN5A-GST (tomato (Solanum lycopersicum)); experiment: pull-down
# [4] = molecular target: SlCV-GST (tomato (Solanum lycopersicum)); experiment: pull-down
# [5] = molecular target: ICA domain of SlCSN5A (tomato (Solanum lycopersicum)); experiment: two-hybrid
# [6] = molecular target: MPN domain of SlCSN5A (tomato (Solanum lycopersicum)); experiment: two-hybrid
# [7] = molecular target: SlCSN5A fused to the GAL4 DNA binding domain (tomato (Solanum lycopersicum)); experiment: two-hybrid
# [8] = molecular target: SlCV fused to the GAL4 DNA binding domain (tomato (Solanum lycopersicum)); experiment: two-hybrid
# [9] = molecular target: SlCSN5A-nLUC (tomato (Solanum lycopersicum)); experiment: split reporter
# [10] = molecular target: SlCSN5A-nYFP (tomato (Solanum lycopersicum)); experiment: split reporter
molecule,measurement,setting,value
COP9 signalosome subunit 5A (SlCSN5A) (tomato (Solanum lycopersicum)),binding,[1],binds
SlCV-GFP (tomato (Solanum lycopersicum)),binding,[2],binds
SlCSN5A-GFP (tomato (Solanum lycopersicum)),binding,[2],binds
"SlPsbS-HIS (protein, UniProt P54773 68-276) APPKKVAPPKEKQKVEDGIFGTSGGIGFTKQNELFVGRVAMIGFAASLLGEAITGKGILAQLNLETGIPIYEAEPLLLFFILFNLLGAIGALGDRGKFVDDPTPPTGLEKAVIPPGKSFKSALGLSEGGPLFGFTKANELFVGRLAQLGIAFSIIGEIITGKGALAQLNFETGVPINEIEPLLLFNIAFFFFAAINPGTGKFITDEEED",binding,[3],binds
same,binding,[4],binds
"SlPsbS fused to the GAL4 activation domain (protein, UniProt P54773 1-276) MAQTMLLTANAKVDLRSKESLVERLKPKPLSSLFLPSLPLRFSSSSTNASSSKFTSTTVALFKSKAKAPPKKVAPPKEKQKVEDGIFGTSGGIGFTKQNELFVGRVAMIGFAASLLGEAITGKGILAQLNLETGIPIYEAEPLLLFFILFNLLGAIGALGDRGKFVDDPTPPTGLEKAVIPPGKSFKSALGLSEGGPLFGFTKANELFVGRLAQLGIAFSIIGEIITGKGALAQLNFETGVPINEIEPLLLFNIAFFFFAAINPGTGKFITDEEED",binding,[5],no binding
same,binding,[6],binds
same,binding,[7],binds
same,binding,[8],binds
"cLUC-SlPsbS (protein, UniProt P54773 68-276) APPKKVAPPKEKQKVEDGIFGTSGGIGFTKQNELFVGRVAMIGFAASLLGEAITGKGILAQLNLETGIPIYEAEPLLLFFILFNLLGAIGALGDRGKFVDDPTPPTGLEKAVIPPGKSFKSALGLSEGGPLFGFTKANELFVGRLAQLGIAFSIIGEIITGKGALAQLNFETGVPINEIEPLLLFNIAFFFFAAINPGTGKFITDEEED",binding,[9],binds
"cYFP-SlPsbS (protein, UniProt P54773 68-276) APPKKVAPPKEKQKVEDGIFGTSGGIGFTKQNELFVGRVAMIGFAASLLGEAITGKGILAQLNLETGIPIYEAEPLLLFFILFNLLGAIGALGDRGKFVDDPTPPTGLEKAVIPPGKSFKSALGLSEGGPLFGFTKANELFVGRLAQLGIAFSIIGEIITGKGALAQLNFETGVPINEIEPLLLFNIAFFFFAAINPGTGKFITDEEED",binding,[10],binds

# These are yes or no findings as the source states them, for the method shown. For some assays here: Binding can be weak; no strength is given. For some assays here: Tags and fused reporters may be left off the sequences shown. For some assays here: Binding seen in cells or lysates may run through a third protein.
